In paper PMC11324303 one finds binding data, which are given here for 3 substances.

Protein sequences, listed by entry. Tags and fused reporters are not part of them. Lines headed by an entry give the natural chain unless they say otherwise; changes in a name come on top. Residues count along the entry.
UniProt Q8IWA5: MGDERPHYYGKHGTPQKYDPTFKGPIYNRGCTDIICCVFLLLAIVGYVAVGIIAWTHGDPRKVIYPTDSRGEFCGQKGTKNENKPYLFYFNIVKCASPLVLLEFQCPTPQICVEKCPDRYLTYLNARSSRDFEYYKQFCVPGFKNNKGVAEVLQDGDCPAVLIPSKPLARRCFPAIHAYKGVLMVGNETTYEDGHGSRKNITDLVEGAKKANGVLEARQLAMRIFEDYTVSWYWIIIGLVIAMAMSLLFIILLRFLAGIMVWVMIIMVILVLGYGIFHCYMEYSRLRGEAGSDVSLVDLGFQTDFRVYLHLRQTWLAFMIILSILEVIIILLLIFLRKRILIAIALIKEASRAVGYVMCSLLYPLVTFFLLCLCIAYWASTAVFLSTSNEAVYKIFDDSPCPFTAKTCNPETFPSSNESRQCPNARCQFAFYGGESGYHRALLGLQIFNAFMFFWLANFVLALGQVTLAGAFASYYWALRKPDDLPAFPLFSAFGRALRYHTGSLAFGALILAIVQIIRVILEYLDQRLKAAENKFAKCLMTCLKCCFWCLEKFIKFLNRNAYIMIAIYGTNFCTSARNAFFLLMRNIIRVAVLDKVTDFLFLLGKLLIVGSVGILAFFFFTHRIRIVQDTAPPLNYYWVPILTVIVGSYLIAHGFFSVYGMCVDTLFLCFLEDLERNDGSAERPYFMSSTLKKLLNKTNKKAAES
UniProt O14786, residues 22-923: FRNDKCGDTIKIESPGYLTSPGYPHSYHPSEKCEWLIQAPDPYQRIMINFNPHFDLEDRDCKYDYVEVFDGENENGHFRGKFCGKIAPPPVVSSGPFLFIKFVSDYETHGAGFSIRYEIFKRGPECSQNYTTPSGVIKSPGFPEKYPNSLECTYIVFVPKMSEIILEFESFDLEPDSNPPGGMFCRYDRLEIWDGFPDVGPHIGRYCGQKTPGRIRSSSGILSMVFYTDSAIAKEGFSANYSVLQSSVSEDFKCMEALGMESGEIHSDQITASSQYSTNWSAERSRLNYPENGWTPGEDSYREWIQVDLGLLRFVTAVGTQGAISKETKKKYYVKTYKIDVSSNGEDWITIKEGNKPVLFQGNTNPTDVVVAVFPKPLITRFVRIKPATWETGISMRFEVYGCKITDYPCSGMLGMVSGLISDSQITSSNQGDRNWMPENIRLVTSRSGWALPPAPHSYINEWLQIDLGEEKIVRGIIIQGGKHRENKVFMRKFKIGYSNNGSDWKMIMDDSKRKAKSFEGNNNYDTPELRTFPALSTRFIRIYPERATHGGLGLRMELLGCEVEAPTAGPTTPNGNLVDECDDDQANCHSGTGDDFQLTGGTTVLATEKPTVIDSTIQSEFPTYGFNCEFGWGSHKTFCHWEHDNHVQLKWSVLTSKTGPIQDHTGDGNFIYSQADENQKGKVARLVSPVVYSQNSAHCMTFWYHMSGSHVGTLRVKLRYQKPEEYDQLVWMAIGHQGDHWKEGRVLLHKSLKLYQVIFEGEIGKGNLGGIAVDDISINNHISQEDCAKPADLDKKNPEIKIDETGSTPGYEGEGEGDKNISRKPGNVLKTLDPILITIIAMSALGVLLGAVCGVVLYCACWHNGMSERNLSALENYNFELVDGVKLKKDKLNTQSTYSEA

The target in assay [1] is HA-tagged WT SLC44A2 (UniProt Q8IWA5). Kind of assay: co-IP; HEK293 cells cotransfected with HA-SLC44A2 and His-NRP1 constructs; IP anti-HA, blot anti-His (Figure 6A); IP anti-His, blot anti-HA (Figure 6B).
The target of assay [2] is GST-tagged SLC44A2 (UniProt Q8IWA5). Kind of assay: pull-down; GST pull-down with GST-tagged SLC44A2 and lysates from HASMCs and MASMCs; only the target purified.

No constants are given. Whether binding was seen depends on the method and setting. Binding seen in cells or lysates may run through a third protein. Binding can be weak; no strength is given.

On to “His-tagged WT-NRP1 (from UniProt O14786 22-923) (receptor)”, for which, in assay [1], the binding result is given as “binds”.

“NRP1 (mouse) (from UniProt P97333 22-923) (receptor)”: the binding result in assay [2] is recorded as “binds”.

As to “neuropilin-1 (NRP1) (from UniProt O14786 22-923) (receptor)”, the binding result in assay [2] is “binds”.
